PubChem BioAssay AID330 (DTP/NCI, 2004)
The list does not hold the whole screen: it gathers tests that were run many times, whatever their T/C, doses with no T/C, and many T/C values between a quarter and a half above the control. Further doses and runs are listed elsewhere. T/C gives the treated animals as a percentage of the vehicle group. Some doses have a count of surviving animals in place of a T/C: the source holds a T/C of zero for them, seemingly a mark for toxic or unscored doses. Some doses without a T/C left all or most animals alive at the check, yet need not have been tolerated: the source hardly ever lists a survival T/C far under the control, and the zero likely stands for such cases as well. Survivors were counted at the toxicity check, usually on the fifth day, unless a day is given; later deaths do not show. Schedule codes are those of the source, read here as Q, the interval in days (D) or hours (H), X, the number of doses. Some entries hold several experiments; the results are listed from low to high. For survival time, this PubChem deposit counts one and a half times the control or more as active, and values a quarter to a half above the control carry no call in these data; other NCI protocols may use other cut-offs.

Test system: P388 leukemia ip, CD2F1 mice, survival T/C
Test: NCI In Vivo Anticancer Drug Screen. Data for tumor model P388 Leukemia (intraperitoneal) in CD2F1 (CDF1) mice
Settings: T/C endpoint: median survival time, higher T/C = longer survival
[1] = dose: 400.0 mg/kg/injection, schedule: Q01DX009 (ip), vehicle: saline with Tween-80
[2] = dose: 240.0 mg/kg/injection, schedule: Q01DX005 (ip), vehicle: Klucel (hydroxypropylcellulose) (HPC)
[3] = dose: 25.0 mg/kg/injection, schedule: Q01DX009 (ip), vehicle: water

CCCCCCC(=O)NC1=C(N2CC2)C(=O)C(NC(=O)CCCCCC)=C(N2CC2)C1=O
T/C (dose: 50.0 mg/kg/injection, schedule: Q04DX003 (ip), vehicle: saline with Tween-80): 131 % of control
T/C (dose: 66.0 mg/kg/injection, schedule: Q04DX003 (ip), vehicle: saline with Tween-80): 145 % of control
survivor count [1]: 6 of 6

COc1ccc2c(c1O)-c1cc(O)cc3c1C(C2)NCC3 (stereo not drawn)
survivor count (dose: 10.0 mg/kg/injection, schedule: Q04DX003 (ip), vehicle: DMSO): 0 of 6

CCOC(=O)c1c(C(=O)OC)nc2n1-c1ccccc1OC2
survivor count (dose: 120.0 mg/kg/injection, schedule: Q01DX005 (ip), vehicle: saline with Tween-80): 6 of 6

CNC(=O)OCc1c(COC(=O)NC)c(-c2ccc(S(C)(=O)=O)cc2)n(C)c1C
T/C (dose: 12.5 mg/kg/injection, schedule: Q01DX009 (ip), vehicle: distilled water + Tween-80): 136 % of control
T/C (dose: 25.0 mg/kg/injection, schedule: Q01DX009 (ip), vehicle: distilled water + Tween-80): 130 and 144 % of control
T/C (dose: 50.0 mg/kg/injection, schedule: Q01DX009 (ip), vehicle: distilled water + Tween-80): 139 % of control
survivor count (dose: 200.0 mg/kg/injection, schedule: Q01DX009 (ip), vehicle: distilled water + Tween-80): 2 of 6

COc1ccc(C(c2cc3c(cc2O)OCO3)N2CCCC2)cc1 (stereo not drawn)
survivor count [2]: 4 of 6

O=C(NCCCCCCCNC(=O)C12CC3CC(CC(C3)C1)C2)C12CC3CC(CC(C3)C1)C2
survivor count (dose: 100.0 mg/kg/injection, schedule: Q01DX005 (ip), vehicle: saline with Tween-80): 6 of 6
survivor count (dose: 200.0 mg/kg/injection, schedule: Q01DX005 (ip), vehicle: saline with Tween-80): 6 of 6

CCOC(=O)N/N=C(\C)c1nc2ccccc2[nH]1
survivor count (dose: 120.0 mg/kg/injection, schedule: Q01DX005 (ip), vehicle: Klucel (hydroxypropylcellulose) (HPC)): 2 of 6
survivor count [2]: 0 of 6

CCOC(=O)N(C)C(C)Cc1ccccc1 (stereo not drawn)
survivor count [1]: 3 of 6

C1CN1Sc1nc(SN2CC2)nc(SN2CC2)n1
survivor count [2]: 0 of 6

N=c1c2c(ncn1Cc1ccccc1)CCN(Cc1ccccc1)C2
survivor count (dose: 50.0 mg/kg/injection, schedule: Q01DX009 (ip), vehicle: saline with Tween-80): 3 of 6

COc1cccc2c1C(=O)c1c(O)c3c(c(O)c1C2=O)C[C@@](O)(C(=O)CN1CCOCC1)C[C@@H]3OC1CC(N)C(O)C(C)O1 (stereo partly drawn)
T/C (dose: 1.56 mg/kg/injection, schedule: Q01DX009 (ip), vehicle: water): 139 % of control
survivor count (dose: 3.13 mg/kg/injection, schedule: Q01DX009 (ip), vehicle: water): 6 of 6
T/C (dose: 5.6 mg/kg/injection, schedule: Q01DX001 (ip), vehicle: water): 129 % of control
T/C (dose: 7.5 mg/kg/injection, schedule: Q01DX001 (ip), vehicle: water): 126 % of control
T/C (dose: 25.0 mg/kg/injection, schedule: Q01DX001 (ip), vehicle: water): 140 % of control
T/C [3]: 134 % of control
survivor count [3]: 6 of 6
survivor count (dose: 50.0 mg/kg/injection, schedule: Q01DX009 (ip), vehicle: water): 6 of 6
survivor count (dose: 200.0 mg/kg/injection, schedule: Q01DX001 (ip), vehicle: water): 1 of 6
survivor count (dose: 400.0 mg/kg/injection, schedule: Q01DX001 (ip), vehicle: water): 0 of 6

COc1ccc2cc3[n+](cc2c1O)CCc1cc2c(cc1-3)OCO2
T/C (dose: 50.0 mg/kg/injection, schedule: Q01DX005 (ip), vehicle: Klucel (hydroxypropylcellulose) (HPC)): 134 and 140 % of control
survivor count (dose: 200.0 mg/kg/injection, schedule: Q01DX005 (ip), vehicle: Klucel (hydroxypropylcellulose) (HPC)): 0 of 6 and 4 of 6

O=C(O)c1cccc([N+](=O)[O-])c1C(=O)c1ccccc1
survivor count (dose: 200.0 mg/kg/injection, schedule: Q04DX003 (ip), vehicle: saline with Tween-80): 6 of 6

Cc1ccn2ncnc2c1
survivor count [1]: 1 of 6

O=c1c2ccccc2nc(-c2ccccc2)n1O
T/C (dose: 25.0 mg/kg/injection, schedule: Q01DX009 (ip), vehicle: Klucel (hydroxypropylcellulose) (HPC)): 138 % of control
survivor count (dose: 50.0 mg/kg/injection, schedule: Q01DX009 (ip), vehicle: Klucel (hydroxypropylcellulose) (HPC)): 2 of 6
